Results as given in US20240352060 (published 2024).
Where “and” joins values, the source holds several entries; their conditions need not be identical. Identical values can stand only once.

Experiment: general procedure: Fmoc solid-phase peptide synthesis; Rink Amide MBHA resin (0.62 mmol/g loading); bromoacetic acid / DIC (submonomer method)
Conditions: whole synthesis, 214 nm; run 1

Substance: (Npe-Nme)9
- crude HPLC purity: 75% and 76%
